The supplement of paper PMC10398353
Structures can show the parent of a compound that is named as a salt. ± gives the standard deviation of the averaged measurements. The list shows a part of the results. The data scatter; read single values as rough.

Each molecule was assayed on Salmonella enterica serovar Typhimurium ST313 D23580 (assay: normalized bacterial growth (OD600 20 h minus 0 h, interquartile-mean normalized) (fraction of plate interquartile mean); higher = more bacterial growth (less inhibition)). Conditions: LPM (pH 5.8, low phosphate, low Mg2+), concentration: 10 µM, temperature: 37 °C.

Structure (SMILES) | normalized bacterial growth
CCCCCCCC/C=C\CCCCCCCC(=O)O [Oleic Acid] | 0.769
CC(C)(C)NCC(O)c1ccc(O)c(CO)c1 (stereo not given) [Salbutamol] | 1.19
CC(C)(C)NCC(O)c1ccc(O)c(CO)c1 (stereo not given) [Albuterol hemisulfate] | 1.05
CCCCC[C@H](O)CC(=O)CCc1ccc(O)c(OC)c1 | 0.858
O=C(O)c1ccccc1Nc1cccc(OCc2ccc3ccccc3n2)c1 | 0.991
COc1cc(C(O)C(=O)O)ccc1O (stereo not given) [()-Vanillylmandelic acid] | 1.36
COc1ccc2cc1Oc1ccc(cc1)C[C@H]1c3c(cc4c(c3Oc3cc5c(cc3OC)CCN(C)[C@@H]5C2)OCO4)CCN1C | 0.89
c1ccc2c3c([nH]c2c1)[C@H]1[C@H]2CC[C@H]([C@@H]4CCCN[C@@H]42)N1CC3 | 0.918
COc1ccc(CC(=O)c2ccc(O)cc2O)cc1 | 0.711
COc1ccc(-c2cc(=O)c3c(O)cc(OC)c(OC)c3o2)c(OC)c1 | 0.829
CC(=O)O[C@H]1Cc2ccccc2N(C(N)=O)c2ccccc21 | 1.01
O=C(NCC1CCCCN1)c1cc(OCC(F)(F)F)ccc1OCC(F)(F)F (stereo not given) [Flecainide acetate] | 0.757
CC1CCc2cc(F)cc3c(=O)c(C(=O)O)cn1c23 (stereo not given) | 0.262
COc1cc2c(cc1OC)-c1c(oc3cc(O)cc(O)c3c1=O)CO2 | 1.08
CCCCOc1ccc(OCCCN2CCOCC2)cc1 | 0.997
CC(C)[C@H]1CC[C@H](C(=O)N[C@H](Cc2ccccc2)C(=O)O)CC1 | 0.994
COC(=O)/C(=C1/OC(=O)C(c2ccccc2)=C1O)c1ccccc1 | 1.09 ± 0.41
COc1c(O)cc2c(c1O)[C@@H]1O[C@H](CO)[C@@H](O)[C@H](O)[C@H]1OC2=O | 0.985 ± 0.2
COc1c(O)cc2c(c1O)[C@@H]1O[C@H](CO)[C@@H](O)[C@H](O)[C@H]1OC2=O [Bergenin monohydrate] | 1.21
COC(=O)[C@@H]1OC(=O)C2OC23[C@@]1(C)CCC1[C@]2(C)C(C[C@@H](O)[C@]13C)C(C)(C)[C@H](OC(C)=O)C[C@@H]2OC(C)=O (stereo not given in full) | 1.13
COc1ccc(CCCOC(Cn2ccnc2)c2ccc(OC)cc2)cc1 (stereo not given) | 0.858
COc1ccc(C(C)=O)c(O)c1 | 0.933
CCCOC(=O)c1c(-c2ccccc2)nc(CC)c(C(=O)SCC)c1CCC | 0.893
COc1ccccc1OCCNCC(O)COc1cccc2[nH]c3ccccc3c12 (stereo not given) [Carvedilol] | 0.664
COc1cc(-c2coc3cc(OCc4ccccc4)c(OC)c(O)c3c2=O)cc(O)c1OC | 0.919
Cc1cc(O)cc(=O)o1 | 1.15
S=P(N1CC1)(N1CC1)N1CC1 | 1.03
COc1cc(N)c(Cl)cc1C(=O)NC1CCN(Cc2ccccc2)CC1 [Clebopride maleate] | 1.22

Structure (SMILES) | normalized bacterial growth
CC(C)[C@@H]1CC[C@@H](C)C[C@H]1OC(=O)c1ccccc1 | 1.13
CC(=O)O[C@H]1CC[C@]2(C)[C@H]3CC=C4[C@@H]5CC(C)(C)CC[C@]5(C(=O)O)CC[C@@]4(C)[C@]3(C)CC[C@H]2C1(C)C | 1.26
CC(CN1c2ccccc2Sc2ccccc21)N(C)C (stereo not given) [Promethazine hydrochloride] | 0.681
C=C1[C@H]2CC[C@@]3(C)[C@H](c4ccoc4)OC(=O)C[C@]13O[C@H]1C[C@H](O)C(C)(C)[C@H](CC(=O)OC)[C@]12C [3-DEOXY-3beta-HYDROXYANGOLENSIC ACID METHYL ESTER] | 1.03
NS(=O)(=O)c1cc2c(cc1C(F)(F)F)NC(Cc1ccccc1)NS2(=O)=O (stereo not given) | 1.21
O=C(c1ccc(OCCN2CCCCC2)cc1)c1c(-c2ccc(O)cc2)sc2cc(O)ccc12 [Raloxifene hydrochloride] | 1.38
CC(C)=CCc1c(O)cc2occ(-c3ccc4c(c3)OCO4)c(=O)c2c1O | 1.09
CCn1cc(C(=O)O)c(=O)c2cc(F)c(N3CCNCC3)cc21 [Norfloxacin] | 0.0574
O=c1c(O)c(-c2ccc(O)c(O)c2)oc2c(O[C@@H]3O[C@H](CO)[C@@H](O)[C@H](O)[C@H]3O)c(O)cc(O)c12 | 0.923
CN(C)c1nc(N)c(C(=O)NC(=N)N)nc1Cl ["5-(N,N-Dimethyl)amiloride hydrochloride"] | 1.02
CC(=O)O[C@H]1C[C@@H](OC(C)=O)C(C)(C)C2CC(=O)[C@]3(C)C(CC[C@@]4(C)[C@H](C(=O)O)OC(=O)C5OC543)[C@]21C (stereo not given in full) | 1.23
Cc1nc2c(OCc3ccccc3)cccn2c1CC#N | 0.979
CCCCCCCCCCCCCCCCC(C(=O)O)C(O)(CC(=O)O)C(=O)O (stereo not given) | 1.4
CCOC(=O)C1=C(C)NC(C)=C(C(=O)OC)C1c1cccc([N+](=O)[O-])c1 (stereo not given) [Nitrendipine] | 1.09
CC1(C)S[C@@H]2[C@H](N3C(=O)[C@@H](c4ccccc4)NC3(C)C)C(=O)N2[C@H]1C(=O)O | 1.13
O=C(O)CCC/C=C\C[C@@H]1[C@@H](/C=C/[C@H](O)C2Cc3ccccc3C2)[C@@H](F)C[C@@H]1O | 0.746
CC1=C(C(=O)O)N2C(=O)[C@@H](NC(=O)[C@H](N)c3ccc(O)cc3)[C@H]2SC1 | 1.18
CC1=C(C(=O)O)N2C(=O)[C@@H](NC(=O)[C@H](N)c3ccc(O)cc3)[C@H]2SC1 [Cefadroxil] | 1
OC[C@H]1O[C@@H](O[C@H]2[C@H](O)[C@@H](O)[C@@H](O)O[C@@H]2CO)[C@H](O)[C@@H](O)[C@@H]1O | 1.18
C=CCN1CCCC1CNC(=O)c1cc2nn[nH]c2cc1OC (stereo not given) [Alizapride HCl] | 1.22
CC1=CCCC(C)=CCC(C)(C)C=CC1 [HUMULENE (alpha)] | 0.943
COc1cc(C)c2c(=O)cc(-c3ccccc3)oc2c1 | 0.714
CC(C)(Oc1ccc(C2CC2(Cl)Cl)cc1)C(=O)O (stereo not given) [Ciprofibrate] | 0.988
C[C@@H]1CC2C3C[C@H](F)C4=CC(=O)C=C[C@]4(C)[C@@]3(F)[C@@H](O)C[C@]2(C)[C@@]1(O)C(=O)COC(=O)C(C)(C)C (stereo not given in full) | 0.96
CCC(C)(CN(C)C)OC(=O)c1ccccc1 (stereo not given) [Amyleine hydrochloride] | 0.904
C=C(NC(=O)C(=C)NC(=O)c1csc(C2=N[C@@H]3c4csc(n4)[C@H]4NC(=O)c5csc(n5)[C@H]([C@](C)(O)[C@@H](C)O)NC(=O)[C@H]5CSC(=N5)/C(=C/C)NC(=O)[C@H]([C@@H](C)O)NC(=O)c5csc(n5)[C@]3(CC2)NC(=O)[C@H](C)NC(=O)C(=C)NC(=O)[C@H](C)NC(=O)[C@H]([C@@H](C)CC)N[C@@H]2C=Cc3c([C@H](C)O)cc(nc3[C@H]2O)C(=O)O[C@@H]4C)n1)C(N)=O | 0.802
C=C(NC(=O)C(=C)NC(=O)c1csc(C2=N[C@@H]3c4csc(n4)[C@H]4NC(=O)c5csc(n5)[C@H]([C@](C)(O)[C@@H](C)O)NC(=O)[C@H]5CSC(=N5)/C(=C/C)NC(=O)[C@H]([C@@H](C)O)NC(=O)c5csc(n5)[C@]3(CC2)NC(=O)[C@H](C)NC(=O)C(=C)NC(=O)[C@H](C)NC(=O)[C@H]([C@@H](C)CC)N[C@@H]2C=Cc3c([C@H](C)O)cc(nc3[C@H]2O)C(=O)O[C@@H]4C)n1)C(N)=O [Thiostrepton] | 0.924

For convenience, part of the list above.
Structure (SMILES) | normalized bacterial growth
NS(=O)(=O)c1cc2c(cc1C(F)(F)F)NC(Cc1ccccc1)NS2(=O)=O (stereo not given) | 1.21
O=C(c1ccc(OCCN2CCCCC2)cc1)c1c(-c2ccc(O)cc2)sc2cc(O)ccc12 [Raloxifene hydrochloride] | 1.38
CC(C)=CCc1c(O)cc2occ(-c3ccc4c(c3)OCO4)c(=O)c2c1O | 1.09
CCn1cc(C(=O)O)c(=O)c2cc(F)c(N3CCNCC3)cc21 [Norfloxacin] | 0.0574
O=c1c(O)c(-c2ccc(O)c(O)c2)oc2c(O[C@@H]3O[C@H](CO)[C@@H](O)[C@H](O)[C@H]3O)c(O)cc(O)c12 | 0.923
